Assay results taken from publication PMC6925144, “A prospective compound screening contest identified broader inhibitors for Sirtuin 1” (Scientific Reports, 2019).
Whole data set: some 3,200 compounds, median “TSA(without NAD+) / Primary screening (TSA) / delta Tm (K)” near -0.07, cut for the highest 2% near 0.37. The list shows a part of the results.

The chains behind the UniProt entries cited, without tags or fusion partners. Residues count along the entry.
UniProt Q96EB6, 2-747 limits assumed: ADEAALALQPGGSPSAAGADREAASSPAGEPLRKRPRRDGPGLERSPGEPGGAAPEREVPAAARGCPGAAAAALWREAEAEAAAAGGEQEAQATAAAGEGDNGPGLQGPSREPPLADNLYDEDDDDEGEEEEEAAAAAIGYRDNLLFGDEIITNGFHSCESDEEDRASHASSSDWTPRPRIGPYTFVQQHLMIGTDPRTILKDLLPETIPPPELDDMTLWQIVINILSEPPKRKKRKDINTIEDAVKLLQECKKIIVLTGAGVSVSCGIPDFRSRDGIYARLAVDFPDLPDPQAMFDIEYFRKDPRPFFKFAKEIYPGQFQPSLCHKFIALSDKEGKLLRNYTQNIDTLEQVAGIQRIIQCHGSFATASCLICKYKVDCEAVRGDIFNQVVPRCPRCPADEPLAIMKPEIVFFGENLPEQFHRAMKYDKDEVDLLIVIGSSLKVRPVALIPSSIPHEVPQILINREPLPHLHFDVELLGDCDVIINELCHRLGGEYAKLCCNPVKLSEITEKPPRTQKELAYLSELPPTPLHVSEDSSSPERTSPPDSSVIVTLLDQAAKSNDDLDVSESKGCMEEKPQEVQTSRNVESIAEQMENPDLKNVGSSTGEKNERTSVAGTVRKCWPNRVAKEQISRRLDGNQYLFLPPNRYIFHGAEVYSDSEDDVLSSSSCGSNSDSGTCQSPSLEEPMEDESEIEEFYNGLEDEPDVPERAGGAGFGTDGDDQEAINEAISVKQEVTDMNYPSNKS

What follows are compounds tested against NAD-dependent deacetylase Sirtuin 1 (human, UniProt Q96EB6) (assay: primary screen, delta tm). Conditions: 10 µM.
Design: single well (n = 1)
Outline: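 Thermal shift of Sirtuin 1 measured without NAD+, compound at 10 µM (n = 1); value is ΔTm, with hits defined as ΔTm > 0.45 K or < −1.5 K. Hits retested at 5, 10, 20 µM (n = 4) and counterscreened on bovine carbonic anhydrase and ABL1 SH2 domain.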

| Structure (SMILES) | TSA(without NAD+) / Primary screening (TSA) / delta Tm (K) |
| --- | --- |
| N#CC1=C(N)N(c2ccccc2)C(=O)C1 | -0.17 K |
| COc1ccc(CCNC(=O)c2ccccc2SCC(=O)NC23CC4CC(CC(C4)C2)C3)cc1 | 0.02 K |
| O=C1/C(=C/c2ccc(F)cc2)Oc2cc(O)ccc21 | 0.05 K |
| Cc1noc(C)c1COc1cccc(C(=O)Nc2ccc(N3CCN(Cc4ccccc4)CC3)cc2)c1 | -0.02 K |
| CN(C)c1ccc(S(N)(=O)=O)cc1N | -0.01 K |
| CCN(CC)S(=O)(=O)c1cccc(C(=O)N[C@H](C(=O)OCC(=O)NC(C)C23CC4CC(CC(C4)C2)C3)C(C)C)c1 (some centres unmarked) | -0.08 K |
| O=C1/C(=C/c2cccc3cccnc23)COc2ccc(Br)cc21 | 0.02 K |
| C=CCSCCN | -0.08 K |
| CC(C)(C)OC(=O)N1CCN(C(=O)CNc2ccccc2C(N)=O)CC1 | 0.29 K |
| O=[N+]([O-])c1ccc(-c2nnc(CSc3nnc(NCc4ccccc4)s3)o2)cc1 | -0.08 K |
| Cc1ccc(-c2nn(-c3ccccc3)cc2C(=O)Nc2cccc(S(=O)(=O)N3CCOCC3)c2)cc1 | 0.07 K |
| CCCOc1ccc(NC=C2C(=O)NC(=S)NC2=O)cc1OCCC | -0.12 K |
| Cc1cccc2c(CC(=O)O)c(-c3ccccc3)[nH]c12 | -0.02 K |
| O=C(Cc1cccc2ccccc12)NC(c1ccccc1)c1ccccc1 | -0.04 K |
| Cn1ncc2c(=O)n(CC(=O)Nc3cc(C(N)=O)ccc3N3CCCC3)cnc21 | 0.03 K |
| COCCC(C)N (centres unmarked) | -0.15 K |
| O=c1[nH]cnc2c(Cl)cc(Cl)cc12 | -0.12 K |
| Cc1ccc(-c2nc(C)sc2CC(=O)Nc2ccc(C(N)=O)cc2)cc1 | -0.12 K |
| COc1cccc(C2(C)NC(=O)N(CC(=O)Nc3ccc(C(N)=O)cc3)C2=O)c1 (centres unmarked) | 0.22 K |
| O=C(NNC(=O)c1cnccn1)c1ccc(OCc2ccccc2)cc1 | 0.07 K |
| Cc1ccc(Cn2c(=O)c3ccccc3n3c(SCC4CCCO4)nnc23)cc1 (centres unmarked) | -0.21 K |
| CC(C)C(=O)NCCNC(=O)Nc1cc(C(N)=O)ccc1F | -0.24 K |
| Cc1cccn2c(=O)c3cc(C(=O)N4CCc5ccccc54)sc3nc12 | 0.03 K |
| Cn1cc(C(=O)OCc2ccc(C(=O)N3CCCC3)cc2)c2ccccc21 | -0.34 K |

| Structure (SMILES) | TSA(without NAD+) / Primary screening (TSA) / delta Tm (K) |
| --- | --- |
| CC(C)CNc1nnc(S)s1 | 0.06 K |
| COc1ccc(N(C)S(=O)(=O)c2cccc(C(=O)Nc3sc4c(c3C(N)=O)CCC(C)C4)c2)cc1 (centres unmarked) | 0.08 K |
| CN(CCC(=O)N1CCc2ccccc21)Cc1ccc2ccccc2c1 | 0.08 K |
| Cc1ccc(-c2cc(-c3ccccc3)c3cc([N+](=O)[O-])ccc3n2)cc1 | 0.03 K |
| CN(C)c1ccc(NC(=O)c2cccc(S(=O)(=O)N(C)c3cccc(Cl)c3)c2)cc1 | 0.27 K |
| CS(=O)(=O)NCC(=O)O | -0.04 K |
| N#Cc1ccc(NC(=O)CSc2nnc(NCc3ccco3)s2)cc1 | 0.09 K |
| O=c1[nH]c(=O)c2[nH]c(=O)[nH]c2[nH]1 | 0.02 K |
| O=C(c1cn(Cc2ccccc2)nc1-c1cccs1)N1CCCC1 | -0.01 K |
| COc1ccc(C(=O)NC2CCCCCC2C(N)=O)c(F)c1 (centres unmarked) | 0.15 K |
| CC(N)CC(=O)O (centres unmarked) | 0.02 K |
| CC(C)(C)c1ccccc1NC(=O)C1CC(=O)N(Cc2ccccc2)C1 (centres unmarked) | -0.18 K |
| Cc1ccc(C)c(C(=O)Nc2cccc(S(=O)(=O)N3CCCCCC3)c2)c1 | -0.18 K |
| CS(=O)(=O)NCCSc1nnc(NCC2CCCO2)s1 (centres unmarked) | -0.03 K |
| Cc1ccc(-c2sc(-c3ccccc3)nc2CC(=O)NC2(C)CCS(=O)(=O)C2)cc1 (centres unmarked) | -0.13 K |
| CC(=O)Nc1ccc(C(=O)COC(=O)c2ccccc2-c2ncc(-c3ccccc3)o2)cc1 | -0.12 K |
| COC(=O)c1cc(OC)ccc1NC(=O)Cn1c(-c2ccc(F)cc2)c(C)sc1=O | -0.18 K |
| CC1CCN(CCNC(=O)NC(C)c2ccc3c(c2)CC(=O)N3)CC1 (centres unmarked) | -0.02 K |
| Cc1[nH]nc(C(N)=O)c1NC(=O)Cn1ccc2ccc(Cl)cc21 | -0.18 K |
| O=C(CN1CCN(C(=O)c2ccc(-c3cc(Cl)ccc3Cl)o2)CC1)Nc1ccccc1Cl | -0.14 K |
| Cc1ccc(S(=O)(=O)NCC(=O)NCC(=O)OCC(=O)c2ccc(C3CCCCC3)cc2)cc1C | 0.19 K |
| CCCOc1ccc(C(=O)C2=C(O)C(=O)N(CCCN3CCOCC3)C2c2ccco2)cc1 (centres unmarked) | 0.12 K |
| Cc1ccc(NC(=O)c2cccc(S(=O)(=O)N(C)c3ccc(C)cc3)c2)cc1 | 0.45 K |

Exported as labelled records: 4 of the compounds above.
CN(C)c1ccc(NC(=O)c2cccc(S(=O)(=O)N(C)c3cccc(Cl)c3)c2)cc1
  TSA(without NAD+) / Primary screening (TSA) / delta Tm (K): 0.27 K
CC(N)CC(=O)O (centres unmarked)
  TSA(without NAD+) / Primary screening (TSA) / delta Tm (K): 0.02 K
Cc1[nH]nc(C(N)=O)c1NC(=O)Cn1ccc2ccc(Cl)cc21
  TSA(without NAD+) / Primary screening (TSA) / delta Tm (K): -0.18 K
Cc1ccc(NC(=O)c2cccc(S(=O)(=O)N(C)c3ccc(C)cc3)c2)cc1
  TSA(without NAD+) / Primary screening (TSA) / delta Tm (K): 0.45 K
